Data: article PMC6063731
Like-named read-outs stand apart in the source and are kept apart here. Results are given in words; binding and its absence hold for the method and conditions named. Binding seen in cells or lysates may run through a third protein. Some entries that bind do so weakly or less than the wild type.

By UniProt entry, the sequences of proteins in these tests, tags left out.
UniProt Q9CQ22: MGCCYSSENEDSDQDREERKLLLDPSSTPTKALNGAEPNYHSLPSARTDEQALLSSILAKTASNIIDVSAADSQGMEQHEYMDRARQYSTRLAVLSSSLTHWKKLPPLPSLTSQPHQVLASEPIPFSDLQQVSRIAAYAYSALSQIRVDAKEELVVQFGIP
UniProt Q80X95: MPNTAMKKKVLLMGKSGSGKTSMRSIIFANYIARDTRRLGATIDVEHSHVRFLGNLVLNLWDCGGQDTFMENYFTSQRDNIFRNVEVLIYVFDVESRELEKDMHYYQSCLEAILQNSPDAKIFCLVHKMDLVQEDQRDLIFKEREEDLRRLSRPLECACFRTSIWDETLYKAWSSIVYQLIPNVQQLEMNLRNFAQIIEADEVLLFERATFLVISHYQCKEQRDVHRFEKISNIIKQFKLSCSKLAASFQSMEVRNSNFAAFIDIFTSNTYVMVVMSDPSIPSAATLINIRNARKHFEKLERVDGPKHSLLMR
UniProt O88653: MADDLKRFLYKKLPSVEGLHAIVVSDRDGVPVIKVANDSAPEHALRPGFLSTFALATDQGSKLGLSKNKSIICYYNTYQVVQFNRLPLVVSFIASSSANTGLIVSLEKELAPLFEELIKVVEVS
UniProt Q6NTA4: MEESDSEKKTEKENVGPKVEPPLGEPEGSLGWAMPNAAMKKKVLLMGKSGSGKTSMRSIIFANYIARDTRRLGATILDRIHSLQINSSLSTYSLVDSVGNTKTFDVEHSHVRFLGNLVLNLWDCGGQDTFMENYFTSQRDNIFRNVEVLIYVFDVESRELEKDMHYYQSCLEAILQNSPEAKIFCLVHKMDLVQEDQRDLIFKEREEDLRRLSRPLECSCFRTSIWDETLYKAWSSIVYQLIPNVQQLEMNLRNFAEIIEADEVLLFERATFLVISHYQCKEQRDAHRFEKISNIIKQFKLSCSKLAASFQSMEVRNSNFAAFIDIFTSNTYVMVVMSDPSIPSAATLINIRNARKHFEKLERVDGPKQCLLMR
UniProt Q99K70: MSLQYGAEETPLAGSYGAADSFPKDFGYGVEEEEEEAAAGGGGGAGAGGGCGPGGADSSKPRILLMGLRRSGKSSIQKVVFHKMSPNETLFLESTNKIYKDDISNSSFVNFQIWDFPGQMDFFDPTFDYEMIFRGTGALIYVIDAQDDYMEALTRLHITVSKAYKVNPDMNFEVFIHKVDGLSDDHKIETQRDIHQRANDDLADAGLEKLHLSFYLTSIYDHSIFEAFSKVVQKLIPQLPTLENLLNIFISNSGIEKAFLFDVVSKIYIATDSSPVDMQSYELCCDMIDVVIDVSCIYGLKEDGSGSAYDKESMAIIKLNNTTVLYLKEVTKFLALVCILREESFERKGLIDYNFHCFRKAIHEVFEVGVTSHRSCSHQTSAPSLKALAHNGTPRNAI
UniProt Q9JHS3: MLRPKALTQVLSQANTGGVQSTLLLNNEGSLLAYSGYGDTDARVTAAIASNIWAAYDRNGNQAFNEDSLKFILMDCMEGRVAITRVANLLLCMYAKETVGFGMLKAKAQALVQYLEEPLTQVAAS

B1: Ube3a (enzyme, UniProt O08759 1-870)
chain: MATACKRSPGESQSEDIEASRMKRAAAKHLIERYYHQLTEGCGNEACTNEFCASCPTFLRMDNNAAAIKALELYKINAKLCDPHPSKKGASSAYLENSKGASNNSEIKMNKKEGKDFKDVIYLTEEKVYEIYEFCRESEDYSPLIRVIGRIFSSAEALVLSFRKVKQHTKEELKSLQEKDEDKDEDEKEKAACSAAAMEEDSEASSSRMGDSSQGDNNVQKLGPDDVTVDIDAIRRVYSSLLANEKLETAFLNALVYLSPNVECDLTYHNVYTRDPNYLNLFIIVMENSNLHSPEYLEMALPLFCKAMCKLPLEAQGKLIRLWSKYSADQIRRMMETFQQLITYKVISNEFNSRNLVNDDDAIVAASKCLKMVYYANVVGGDVDTNHNEEDDEEPIPESSELTLQELLGDERRNKKGPRVDPLETELGVKTLDCRKPLISFEEFINEPLNDVLEMDKDYTFFKVETENKFSFMTCPFILNAVTKNLGLYYDNRIRMYSERRITVLYSLVQGQQLNPYLRLKVRRDHIIDDALVRLEMIAMENPADLKKQLYVEFEGEQGVDEGGVSKEFFQLVVEEIFNPDIGMFTYDEATKLFWFNPSSFETEGQFTLIGIVLGLAIYNNCILDVHFPMVVYRKLMGKKGTFRDLGDSHPVLYQSLKDLLEYEGSVEDDMMITFQISQTDLFGNPMMYDLKENGDKIPITNENRKEFVNLYSDYILNKSVEKQFKAFRRGFHMVTNESPLKYLFRPEEIELLICGSRNLDFQALEETTEYDGGYTRESVVIREFWEIVHSFTDEQKRLFLQFTTGTDRAPVGGLGKLKMIIAKNGPDTERLPTSHTCFNVLLLPEYSSKEKLKERLLKAITYAKGFGML

Key:
[1] = molecular target: p18 (mouse (endogenous in hippocampal neurons and hippocampus)) (UniProt Q9CQ22); test: co-IP; lysates of cultured mouse hippocampal neurons; anti-p18 antibody overnight or control IgG, protein A/G agarose; 4°C; lysis buffer 25 mM Tris-HCl pH 7.4, 150 mM NaCl, 1 mM EDTA, 1% NP-40, 5% glycerol; Western blot
[2] = molecular target: RagA (mouse (endogenous in hippocampus)) (UniProt Q80X95); test: co-IP; mouse hippocampal lysates (WT mice; also AS mice, in which less p18 came down with RagA); rabbit anti-RagA antibody or control IgG, Protein A/G-conjugated beads; 4°C; Western blot
[3] = molecular target: p18 (mouse (endogenous in hippocampal neurons and hippocampus)) (UniProt Q9CQ22); test: co-IP; lysates of cultured mouse hippocampal neurons; anti-p18 antibody overnight or control IgG, protein A/G agarose; 4°C; lysis buffer 25 mM Tris-HCl pH 7.4, 150 mM NaCl, 1 mM EDTA, 1% NP-40, 5% glycerol; Western blot; remark: listed apart in the source

Row | Molecule | binding [1] | binding [2] | binding [3]
1 | MP1 (from UniProt O88653 1-124) | binds |  | 
2 | RagB (from UniProt Q6NTA4 1-374) |  | binds | 
3 | RagC (from UniProt Q99K70 1-398) |  | binds | 
4 | p14 (from UniProt Q9JHS3 1-125) | binds | binds | 
5 | p18 (from UniProt Q9CQ22 1-161) |  | binds | 
6 | B1 |  |  | binds
